The name of at least one read-out is uncertain.
Target: human 20S proteasome (hu20S) (Homo sapiens, UniProt P28074)
Test: Human 20S chymotryptic activity, Suc-LLVY-AMC cleavage
Type: biochemical
Settings: versus non-labeled analog; 10 μM Suc-LLVY-AMC, 1 nM hu20S
Description: Proteasome activity was measured via LLVY-AMC cleavage. Fluorescence was measured using the excitation wavelength of 340 nm and an emission wavelength of 465 nm. The assay was carried out in 20 mM Tris, pH 8.0, 0.5 mM EDTA, 0.03% SDS buffer with 5% DMSO.
The ability of Inhibitor 1 to inhibit the proteolytic activity of the human 20S proteasome (hu20S) both in vitro and in cells was tested using the fluorescent substrate for the chymotryptic-like activity of the proteasome, Suc-LLVY-AMC as shown in FIG. 1 and Table 1. Fluorescence was measured using the excitation wavelength of 340 nm and an emission wavelength of 465 nm. […] The assay was carried out in 20 mM Tris, pH 8.0, 0.5 mM EDTA, 0.03% SDS buffer with 5% DMSO.

Amino acid sequences for entries named in this document (tags omitted). A change or cut given only in a name is not applied to a line headed by its entry.
UniProt P28074: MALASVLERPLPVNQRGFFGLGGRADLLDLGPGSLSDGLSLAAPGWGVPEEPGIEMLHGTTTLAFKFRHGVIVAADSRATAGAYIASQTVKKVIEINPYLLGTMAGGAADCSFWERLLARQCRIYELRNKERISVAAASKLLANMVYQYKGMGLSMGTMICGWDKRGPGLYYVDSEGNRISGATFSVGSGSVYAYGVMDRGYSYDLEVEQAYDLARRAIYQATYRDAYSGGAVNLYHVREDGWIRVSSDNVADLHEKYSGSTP

CC(C)C[C@H](NC(=O)[C@H](CCc1ccccc1)NC(=O)c1ccc(C2=C3C=CC(O)C=C3Oc3cc(O)ccc32)c(C(=O)O)c1)C(=O)N[C@@H](Cc1ccccc1)C(=O)N[C@@H](CC(C)C)C(=O)[C@@]1(C)CO1 (single isomer, unassigned) [Inhibitor 1]
kinact/Ki lower than the non-labeled analog: 4 ×

— US20060088471A1, “Compounds for enzyme inhibition” (Proteolix, Inc., priority 2004, published 2006)
